Measured values taken from patent publication US20240050526A1, “CATH2 DERIVATIVES FOR STIMULATING INNATE IMMUNE MEMORY” (priority 2020, published 2024).
At least one compound was matched to its structure with a doubt left. Some entries repeat one wording, which the source may state once for all of them.

What was measured:
dTHP-1 cells [1] = experiment: DCATH-2 training of dTHP-1 cells in the presence of pathway inhibitors; format: cell-based, human; settings: inhibitor 1 h before and during priming with 5 μM DCATH-2; 3 days rest; 1 μg/ml Pam3CSK4
Description: THP-1 cells were cultured in Iscove Modified Dulbecco Media (IMDM, Gibco) containing Glutamax-I, sodium pyruvate, 10% fetal calf serum at 37° C. and 5% CO2. For differentiation to macrophage-like cells, THP-1 cells were grown in IMDM/FCS medium containing 8 of 100 nM PMA and seeded in 96 wells (5×10^4 cells/well), 24 wells (3×10^5 cells/well) or 6 wells plates (1×10^6 cells/well) during 48 h. Subsequently, dTHP-1 were washed with pre-warmed IMDM/FCS, left overnight to rest and primed during 1 to 24 h with 2-10 μM peptides of fresh IMDM/FCS medium, washed 3 times in medium. After 3 days rest cells were stimulated with various stimuli: S. minnesota LPS (10 ng/ml), E. coli LPS (10 or 50 ng/ml), Pam3CSK4 (1 μg/ml) or Pam2CSK4 (1 μg/ml). After 24 h supernatants were collected and stored at −20° C. For inhibition, dTHP-1 cells were pre-incubated for 1 h before priming and during priming with rapamycin (10 nM), AICAR (50 nM), metformin (0.3 mM), wortmannin (1 μM), ascorbate (50 μM), SB203580 (10 μM), PD98059 (10 μM), SP600125 (10 μM), EGCG (40 μM), anacardic acid (50 μM), curcumin (10 μM), garcinol (10 μM), Bay-11-7085 (10 μM), MTA (1 mM), MM-102 (25 μM), suramin (50 μM), KN-62 (3 μM), nystatin (10 μg/ml), and chlorpromazine (10 μM).
TNFα, IL-6, CXCL10 and CCL5 production were measured using ELISA (R&D systems) following instructions of the manufacturer.

dTHP-1 cells [2] = experiment: Metabolomics of DCATH-2 trained dTHP-1 cells; format: cell-based, human
Description: dTHP-1 cells were seeded (1×10^6 cells/well) in 6 wells plates and primed during 24 h with 5 μM DCATH-2 as described using medium as control. Cell supernatants, cell lysates and medium controls were collected before and after 24 h priming in the absence and presence of 10 nM rapamycin, after washing followed by 3 days rest and after subsequent 24 h LPS (E. coli O111:B4) stimulation. For sample collections, cells were washed once in ice-cold PBS, lysed with by adding 1 ml cold methanol/acetonitrile/water (2:2:1) lysis buffer, scraped and transferred in to vials. Cell supernatants and medium control samples (10 μl) were directly mixed with 200 μl lysis buffer. Samples were shaken for 10 min at 4° C. and centrifuged for 15 min at 18,000×g and 4° C. Supernatants were flash frozen in liquid nitrogen and stored at −80° C. for analysis. Liquid chromatography-mass spectrometry analysis was performed using an Exactive mass spectrometer (Thermo Scientific), coupled to a Dionex Ultimate 3000 auto sampler and pump (Thermo Scientific). The mass spectrometry operated in polarity-switching mode with spray voltages of 4.5 and −3.5 kV. Metabolites were separated using a Sequant ZIC-pHILIC column (2.1×150 mm, […], guard column 2.1×20 mm, […]; Merck) using a linear gradient of acetonitrile and eluent A 20 mM (NH4)2CO3, 0.1% NH40H in ULC/MS grade water (Biosolve BV, Valkenswaard, The Netherlands) and a flow rate of 150 μl/min. Metabolites were identified and peak intensities quantified using LCquan software (Thermo Scientific) on the basis of exact mass within 5 ppm and further validated by concordance with retention times of commercially available standards. Peak intensities were normalized on cell counts of parallel wells before and after LPS stimulation.

## COC[C@H]1OC(=O)c2coc3c2[C@@]1(C)C1=C(C3=O)[C@@H]2CCC(=O)[C@@]2(C)C[C@H]1OC(C)=O [wortmannin]
dTHP-1 cells [1]
  effect of inhibitor on DCATH-2 training (amplified Pam3CSK4-induced TNFα production): strongly interfered

## C=C(C)[C@@H](CC=C(C)C)C[C@@]12C[C@@H](CC=C(C)C)C(C)(C)[C@@](CC=C(C)C)(C(=O)C(C(=O)c3ccc(O)c(O)c3)=C1O)C2=O [garcinol]
dTHP-1 cells [1]
  effect of inhibitor on DCATH-2 training (amplified Pam3CSK4-induced TNFα production): not by garcinol or curcumin

## CO[C@H]1C[C@@H]2CC[C@@H](C)[C@@](O)(O2)C(=O)C(=O)N2CCCC[C@H]2C(=O)O[C@H]([C@H](C)C[C@@H]2CC[C@@H](O)[C@H](OC)C2)CC(=O)[C@H](C)/C=C(\C)[C@@H](O)[C@@H](OC)C(=O)[C@H](C)C[C@H](C)/C=C/C=C/C=C/1C [rapamycin, reference compound]
dTHP-1 cells [2]; 10 nM rapamycin during priming with 5 μM DCATH-2, 50 ng/ml E. coli LPS
  effect of inhibitor on DCATH-2 amplified TNFα and IL-6 production upon E. coli LPS stimulation: strongly reduced
dTHP-1 cells [2]; 10 nM rapamycin during priming, 24 h LPS stimulation
  effect of inhibitor on DCATH-2 training-induced effects on cell metabolism during LPS stimulation: reduced
dTHP-1 cells [2]; 10 nM rapamycin during priming, after 3 days rest
  effect of inhibitor on DCATH-2 augmentation of lactate production, glycolysis, pentose phosphate pathway and de novo pyrimidine synthesis: abolished augmentation
dTHP-1 cells [1]
  effect of inhibitor on DCATH-2 training (amplified Pam3CSK4-induced TNFα production): strongly interfered

## O=C1O[C@H]([C@@H](O)CO)C(O)=C1O [ascorbate]
dTHP-1 cells [1]
  effect of inhibitor on DCATH-2 training (amplified Pam3CSK4-induced TNFα production): strongly interfered
